Measured values taken from paper PMC12799932, “Development of a VHH that inhibits the binding of neuronal pentraxin 2 to a postsynaptic glutamate receptor, AMPAR” (The Journal of Biological Chemistry, 2025).
These are yes or no findings as the source states them, for the method shown. Binding calls can cover weak binding; strength is not graded here.

The chains behind the UniProt entries cited, without tags or fusion partners. Where a name states a change or a piece, a line headed by the entry shows the natural chain unless it says otherwise.
UniProt P48058: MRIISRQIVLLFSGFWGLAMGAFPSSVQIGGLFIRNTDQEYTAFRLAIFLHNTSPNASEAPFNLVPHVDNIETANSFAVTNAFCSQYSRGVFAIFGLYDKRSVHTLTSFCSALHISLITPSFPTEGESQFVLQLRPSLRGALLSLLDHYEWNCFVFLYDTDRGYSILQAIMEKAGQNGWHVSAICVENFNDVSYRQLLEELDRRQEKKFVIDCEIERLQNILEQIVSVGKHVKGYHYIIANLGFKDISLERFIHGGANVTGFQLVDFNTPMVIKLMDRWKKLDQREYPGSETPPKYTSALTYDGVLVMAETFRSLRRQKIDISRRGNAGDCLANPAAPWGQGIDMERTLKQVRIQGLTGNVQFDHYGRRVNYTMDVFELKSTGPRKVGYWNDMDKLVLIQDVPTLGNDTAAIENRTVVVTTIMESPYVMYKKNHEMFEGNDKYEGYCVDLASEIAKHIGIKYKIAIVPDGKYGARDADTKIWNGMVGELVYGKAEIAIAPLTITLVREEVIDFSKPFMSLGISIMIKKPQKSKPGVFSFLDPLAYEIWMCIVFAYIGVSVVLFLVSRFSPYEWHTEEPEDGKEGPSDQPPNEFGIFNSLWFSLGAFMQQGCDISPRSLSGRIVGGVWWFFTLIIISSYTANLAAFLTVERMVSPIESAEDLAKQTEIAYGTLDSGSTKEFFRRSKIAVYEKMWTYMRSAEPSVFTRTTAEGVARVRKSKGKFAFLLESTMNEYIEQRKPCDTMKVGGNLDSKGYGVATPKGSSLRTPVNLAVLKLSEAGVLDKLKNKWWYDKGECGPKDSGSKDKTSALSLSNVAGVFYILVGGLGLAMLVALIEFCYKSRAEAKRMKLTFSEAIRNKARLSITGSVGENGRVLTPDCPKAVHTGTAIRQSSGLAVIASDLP

Target: GluA4 ATD (amino-terminal domain of human GluA4), recombinant (human) (UniProt P48058)
Test: SPR; competition; Biacore T200; GluA4 ATD (~800 RU) amine-coupled on CM5, 500 nM NP2 PTX mixed with 0-1000 nM VHH N1 as analyte; 10 mM Hepes-NaOH pH 7.4, 150 mM NaCl, 3 mM CaCl2, 0.005% Tween-20; both purified

B1: NP2 PTX (pentraxin domain of neuronal pentraxin 2) (domain or fragment, human)
chain: DAFKVSLPLRTNYLYGKIKKTLPELYAFTICLWLRSSASPGIGTPFSYAVPGQANEIVLIEWGNNPIELLINDKVAQLPLFVSDGKWHHICVTWTTRDGMWEAFQDGEKLGTGENLAPWHPIKPGGVLILGQEQDTVGGRFDATQAFVGELSQFNIWDRVLRAQEIVNIANCSTNMPGNIIPWVDNNVDVFGGASKWPVETCEERLLDL
notes: neuronal pentraxin 2 (NP2, Nptx2), human, pentraxin (PTX) domain; also called NP2 PTX WT; PTX domain of NP2; source: Expi293 cells, secreted, purified (Ni-NTA, SEC)
binding: binds
